Measured data: PubChem BioAssay AID652243 (Drosophila RNAi Screening Center, 2013)

Assay: 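Knock-downs that decrease or increase androgen receptor reporter signal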 (primary screen)
Cell system: Drosophila S2R+ cells
Reagent: long dsRNA against Drosophila genes
Time to read-out: 72 h (48 h, then 24 h hormone)
Treatment: synthetic androgen R1881 at 10 nM for 24 h
Measured: 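Firefly light from an androgen-responsive reporter and Renilla control light per well, raw and unnormalised, for each of two replicates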
Direction: firefly reporter light: higher = more light from androgen-responsive reporter; Renilla control light: higher = more constitutive control signal (cell number, transfection)
Call rule: 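Hit when the log firefly-to-Renilla ratio dropped or increased by a fixed fold versus the mean of GFP or LacZ controls across duplicate plates; lowering cut given as 1.5 and as 3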
Calls: active = hit: reporter lowered or raised; inactive = no hit
The deposit covers about 24,000 reagents; this is an unselected part of those with a known target gene and a result. Of all reagents, 246 (1%) are marked active. 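Plates not normalised; calls are printed but the firefly/Renilla ratio behind them is not deposited; fold cut for lowering reported inconsistently.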 The raw values are shown without normalisation. Reagents against one gene are numbered here. A plus sign joins genes that one reagent is predicted to hit. Not given: the amount of reagent.

no.	gene	reagent no.	firefly reporter light, replicate 1	firefly reporter light, replicate 2	Renilla control light, replicate 1	Renilla control light, replicate 2	Call
1	CG15739	1	3.52e5	3.93e5	3.21e6	2.32e6	inactive
2	CG15739	2	2.86e5	3.83e5	1.43e6	9.66e5	inactive
3	Cyt-c-d (Cytochrome c distal)	1	1.32e5	1.78e5	1.97e6	2.20e6	inactive
4	Cyt-c-d (Cytochrome c distal)	2	1.38e6	7.98e5	1.32e6	7.06e5	inactive
5	CG17806	1	77708	86562	4.37e5	6.72e5	inactive
6	Slik (Sterile20-like kinase)	1	7.99e5	8.60e5	1.40e6	1.31e6	inactive
7	Slik (Sterile20-like kinase)	2	1.01e6	1.04e6	1.33e6	1.43e6	inactive
8	Slik (Sterile20-like kinase)	3					inactive
9	otp + asRNA:CR43160	1	5.24e5	3.99e5	1.51e6	1.17e6	inactive
10	CG4972	1	2.14e5	1.44e5	1.00e6	1.16e6	inactive
11	CG33923	1	9.25e5	6.42e5	2.07e6	1.67e6	inactive
12	LRP1 (LDL receptor protein 1)	1	3.30e5	2.71e5	1.96e6	1.33e6	inactive
13	inaF-B + inaF-D + inaF-C + 1 more	1	3.69e5	3.74e5	3.67e6	3.82e6	inactive
14	inaF-B + inaF-D + inaF-C + 1 more	2	7.82e5	4.05e5	1.81e6	1.46e6	inactive
15	cass (cassowary)	1	1.06e6	1.60e6	8.95e5	1.49e6	inactive
16	cass (cassowary)	2	3.54e5	4.18e5	8.04e5	9.72e5	inactive
17	RpL18 (Ribosomal protein L18)	1	1.62e5	1.31e5	1.14e6	1.30e6	inactive
18	RpL18 (Ribosomal protein L18)	2	3.71e5	4.79e5	1.54e6	1.19e6	inactive
19	MFS10 (Major Facilitator Superfamily Transporter 10)	1	74894	1.12e5	7.21e5	5.56e5	inactive
20	MFS10 (Major Facilitator Superfamily Transporter 10)	2	3.71e5	2.96e5	8.38e5	5.82e5	inactive
21	CG11151	1	4.63e5	5.51e5	3.95e6	3.81e6	inactive
22	Ccp84Ad	1	26427	27491	1.54e6	1.17e6	inactive
23	Ccp84Ad	2	5.48e5	9.09e5	1.22e6	1.64e6	inactive
24	IRSp53 (Insulin receptor substrate 53 kDa)	1	1.31e5	1.12e5	1.54e6	1.86e6	inactive
25	Vta1 (Vesicle trafficking 1)	1	4.94e5	5.53e5	2.74e6	2.69e6	inactive
26	Vta1 (Vesicle trafficking 1)	2	3.45e5	8.09e5	1.20e6	2.16e6	inactive
27	CG42568 + DnaJ-60	1	2.02e5	2.28e5	1.46e6	1.65e6	inactive
28	CG42568 + DnaJ-60	2	6.99e5	5.09e5	1.11e6	1.11e6	inactive
29	CG42568 + DnaJ-60	3	3.58e5	4.27e5	7.39e5	7.22e5	inactive
30	CG11458	1	4.94e5	8.20e5	7.62e5	9.81e5	inactive
31	SCAR	1	1.94e5	2.13e5	2.33e6	2.40e6	inactive
32	CG13460	1	1.39e5	1.44e5	1.56e6	1.19e6	inactive
33	mRpL18 (mitochondrial ribosomal protein L18)	1	2.80e5	2.02e5	1.95e6	1.23e6	inactive
34	DNaseII (Deoxyribonuclease II)	1	23027	28631	2.84e5	4.06e5	inactive
35	mRpL2 (mitochondrial ribosomal protein L2)	1	1.58e5	1.67e5	2.57e6	1.90e6	inactive
36	CG11170	1	1.06e6	3.47e5	1.85e6	6.25e5	inactive
37	CG11170	2	5.28e5	4.87e5	1.43e6	1.29e6	inactive
38	CG8642	1	3.67e5	2.27e5	2.34e6	1.83e6	inactive
39	temp (tempura)	1	62289	1.10e5	6.16e5	7.31e5	inactive
40	CG5645	1	6.56e5	4.93e5	1.27e6	1.25e6	inactive
41	CG9631	1	14341	46263	2.17e5	2.34e5	inactive
42	CG6236	1	1.28e5	1.06e5	6.97e5	5.23e5	inactive
43	CG10324	1	96138	1.36e5	1.86e6	2.42e6	inactive
44	Doc1 (Dorsocross1)	1	2.54e5	3.11e5	3.22e6	2.52e6	inactive
45	Doc1 (Dorsocross1)	2	3.66e5	4.50e5	9.55e5	8.00e5	inactive
46	lncRNA:Hsromega (Heat shock RNA omega)	1	7.58e5	9.39e5	1.85e6	2.16e6	inactive
47	lncRNA:Hsromega (Heat shock RNA omega)	2	3.63e5	3.42e5	8.75e5	8.63e5	inactive
48	Osi13 (Osiris 13)	1	32302	47234	7.27e5	7.16e5	inactive
49	CG12112	1	1.05e5	99630	7.62e5	8.10e5	inactive
50	CG14974	1	1.38e5	2.03e5	1.45e6	2.09e6	inactive
51	CG31823	1	1.52e5	1.82e5	1.53e6	2.38e6	inactive
52	CG31709	1	1.99e5	2.21e5	4.79e5	4.25e5	inactive
53	CG31709	2	2.37e5	3.60e5	5.11e5	7.58e5	inactive
54	e(y)2 (enhancer of yellow 2)	1	8.29e5	7.79e5	3.35e6	2.89e6	inactive
55	CG13659	1	2.29e5	2.78e5	2.25e6	2.91e6	inactive
56	CG13659	2	7.95e5	9.45e5	1.28e6	1.28e6	inactive
57	5-HT7 (5-hydroxytryptamine (serotonin) receptor 7)	1	52837	1.31e5	6.13e5	5.99e5	inactive
58	5-HT7 (5-hydroxytryptamine (serotonin) receptor 7)	2	9.47e5	8.49e5	1.09e6	8.82e5	inactive

Already shown: an excerpt of the list.
no.	gene	reagent no.	firefly reporter light, replicate 1	firefly reporter light, replicate 2	Renilla control light, replicate 1	Renilla control light, replicate 2	Call
3	Cyt-c-d (Cytochrome c distal)	1	1.32e5	1.78e5	1.97e6	2.20e6	inactive
4	Cyt-c-d (Cytochrome c distal)	2	1.38e6	7.98e5	1.32e6	7.06e5	inactive
5	CG17806	1	77708	86562	4.37e5	6.72e5	inactive
6	Slik (Sterile20-like kinase)	1	7.99e5	8.60e5	1.40e6	1.31e6	inactive
7	Slik (Sterile20-like kinase)	2	1.01e6	1.04e6	1.33e6	1.43e6	inactive
8	Slik (Sterile20-like kinase)	3					inactive
9	otp + asRNA:CR43160	1	5.24e5	3.99e5	1.51e6	1.17e6	inactive
10	CG4972	1	2.14e5	1.44e5	1.00e6	1.16e6	inactive
